Here are results for 16 molecules from patent US20040048243A1, “Methods and compositions for in vitro targeting” (priority 2003, published 2004).

Protein sequences, listed by entry. Tags and fused reporters are not part of them. Residues count along the entry.
UniProt P00747, residues 98-357: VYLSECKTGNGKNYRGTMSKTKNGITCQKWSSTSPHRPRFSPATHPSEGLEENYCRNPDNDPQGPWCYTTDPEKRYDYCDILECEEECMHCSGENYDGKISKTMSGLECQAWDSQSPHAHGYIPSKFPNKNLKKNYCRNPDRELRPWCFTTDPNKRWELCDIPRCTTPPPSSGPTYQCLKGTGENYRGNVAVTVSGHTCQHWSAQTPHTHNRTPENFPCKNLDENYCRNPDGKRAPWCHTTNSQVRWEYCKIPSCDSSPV

The assay has as its target rhAngiostatin (human, UniProt P00747 98-357, limits assumed). Briefly: phage panning on coated rhAngiostatin; table: sequences displayed by phage binding rh Angiostatin.

Results are given in words; binding and its absence hold for the method and conditions named. Some entries that bind do so weakly or less than the wild type.

In the case of CWSLEVAKC, the binding result is listed as “binds”. To CWSLEFTKC belongs “binds”; to CLAWVGGRC, “binds”. To CWSLESLKC belongs “binds”; to CYGAWRVSC, “binds”; to CRWSSMIWC, “binds”. To CQGKFSQRC belongs “binds”; to CVAADRYVC, “binds”; to CGVVSRVGC, “binds”. As for CSLQGIVGC, the binding result was “binds”. In the case of CWSLELSKC, the binding entry is on record as “binds”. Take CSRSVSRLC: the binding result is recorded as “binds”. For CRVLADRDC the value was “binds”; for CWSLELLKC, “binds”. Take CGGREFWLC: the binding entry is “binds”. In the case of CWSAEWTKC, the binding entry is given as “binds”.
